Data: ChEMBL document CHEMBL4296182, “CO-ADD screening of NIH NCI Diversity Set V”
Several values for one entry are separate records, joined by “and”; a condition that tells them apart may be missing. Equal entries are not always repeated. Some of the results follow. Entries with a potency or affinity are not part of this list.

Test system: Pseudomonas aeruginosa
Conditions: Concentration 20 uM, ASSAY_TEST Inhibition of Bacterial Growth, detection method Absorption (OD600), MEDIA CAMHB, plate type 384well, NBS, CORNING #3640, time 18 hr

Structure (SMILES)	Inhibition [%]	Inhibition (20 µM)
Cc1cc(OCCCCOc2ccc(C#N)cc2)ccc1[N+](=O)[O-]	18.43	–
O=C1NC(=O)N2CCSC2(Cc2ccccc2)N1 (stereo unspecified)	0.32	–
Cc1ccc(/N=N/c2ccc(C)cc2NC(=O)Nc2ccccc2F)cc1	20.01	–
O=[N+]([O-])c1ccc2[nH]c3nc4ccccc4nc3c2c1	-7.68	–
CC(C)n1cc(C#N)c(N)n1	21.51	–
Cc1ccc(Cl)cc1NC(=O)c1cc2ccccc2cc1O	18.12	–
C=CCOCCN(CC)CC	-10.94	–
COc1ccccc1C1OC2=Nc3cc([N+](=O)[O-])ccc3NC2=C1O (stereo unspecified)	10.41	–
CCCSc1ncnc2[nH]ncc12	12.64	–
NC(=S)NC(=O)c1ccccc1	19.62	–
C=CCC(CC)C(=O)NC(=O)N1CCCc2ccccc21 (stereo unspecified)	-1.54	–
Nc1o[nH]c(=O)c1C1CCCCC1	24.88	–
Cn1c(=O)c2nc(SCc3ccccn3)[nH]c2n(C)c1=S	18.43	–
c1ccc(/N=N/N2CCOCC2)cc1	0.98	–
COc1cc(CC(=O)C(=O)O)oc(=O)c1	1.6	–
C=CCNC(S)=Nc1c(N)n(C)c(=O)n(C)c1=O	-17.65	–
CCS(=O)(=O)C1C(=O)N(C)C(S(=O)(=O)CC)C(=O)N1C (stereo unspecified)	15.36	–
OCc1nc2nc(Cl)c(Cl)[nH]c-2n1	-6.12	–
CC(=O)N1C(=O)C2(NCC(C)N2)c2ccccc21 (stereo unspecified)	10.87	–
CC1=CC(=O)Nc2cncnc2N1	16.17	–
COc1ccn(C2CCCCO2)c(=O)n1 (stereo unspecified)	2.49	–
c1ccc(-c2nc[nH]c2-c2ccccc2)cc1	12.66	–
CC12CCC(C1)C(C)(C)C2OC(=O)c1ccccc1C(=O)O (stereo unspecified)	13.04	–
Oc1nc2ccccc2n1C1=CCNCC1	2.93	–
Cc1ccc(/N=N/c2c(O)c3ccccc3[nH]c2=O)c(S(=O)(=O)N(C)C)c1	26.99	–

Structure (SMILES)	Inhibition [%]	Inhibition (20 µM)
O=c1[nH]c(=O)n2ncnc2[nH]1	10.65	–
O=CN/C=C\c1cc(O)ccc1O	-23.16	–
CSc1nc(C)cc(S)n1	2.94	–
N#CCS(=O)(=O)c1cccc[n+]1[O-]	0.13	–
CC1(C)c2ccccc2-c2nc3ccccc3cc2C1O (stereo unspecified)	-4.4	–
O=C(c1ccccc1)c1ccc(-c2ccc(O)cc2)cc1	17.15	–
CC(=O)c1cc2c(cc1C)CCCC2(C)C	17.61	–
C=CCOC(=O)/C=C\C(=O)NC(N)=O	6.38	–
Nc1ccccc1C(=O)Nc1ccc(Cl)cc1Cl	25.31	–
N#Cc1cc(-c2ccccc2)[nH]c1-c1nccc2ccccc12	3.93	–
O=C(O)CCc1cccnc1	24.36	–
Clc1ccccc1-c1nc(-c2ccncc2)no1 [PIFEXOLE]	9.89	–
O=C(O)c1nn(-c2ccccc2-c2nnc(O)nc2O)c(=O)[nH]c1=O	13.93	–
CSc1nc(S)c2[nH]c(S)nc2n1	6.05	–
COc1ccc([N+](=O)[O-])cc1NC(=O)N(C)Cc1ccco1	19.99	–
Cc1ccc(-n2nnnc2-c2cccnc2)cc1	12.5	–
O=S1(=O)CCN(Cc2ccccn2)CC1	5.43	–
CCCCCC(=O)C(=O)c1ccc(O)cc1O	2.6	–
O=C(CN1CCOCC1)N1CCOCC1	11.38	–
c1ccc(NN(Cc2ccncc2)c2ccccc2)cc1	12.56	–
N=C(N)n1c(N)nc2ccccc2c1=O	8.45	–
NC(=S)N/N=C/c1cc(-c2cccc(N)c2)ccn1	3.8	–
Cc1nc2ccnn2c(O)c1CCc1ccccc1	11.23	–
C#CCCOC(=O)Nc1ccccc1	17.08	–
CCCCc1c(C)nc(S)nc1O	10.84	–

Structure (SMILES)	Inhibition [%]	Inhibition (20 µM)
Br.CN(C)c1n/c(=N/Cc2ccco2)ss1	22.68	–
CSc1cccc(NC(=O)N2CCN(C)CC2)c1	6.78	–
Cn1c(SCc2ccccn2)nc2c1c(=O)[nH]c(=O)n2C	16.97	–
O=C(Nc1ccc(Cl)cc1)Nc1cccc2nsnc12	-9.37	–
COc1ccc2c(=O)cc(-c3cccnc3)oc2c1OC	7.45	–
CCCCSc1cc(C)nc(N)n1	27.44	–
Cc1cccnc1N=C(S)Nc1ncccc1C	9.37	–
N#Cc1ncc(Cl)c2ccccc12	-12.33	–
NC1=C2C(=O)c3ccccc3C(=O)C2=C(N)CC1	-14.52	–
O=c1ccn2c(n1)SC(c1ccccc1)C2 (stereo unspecified)	-3.69	–
Nc1ccccc1SC1CC(=O)N(c2ccccc2Cl)C1=O (stereo unspecified)	-10.93	–
Nc1ccccc1SC1CC(=O)N(c2ccc(Cl)c(Cl)c2)C1=O (stereo unspecified)	12.53	–
Nc1cc(-c2ccccc2)ccc1O	12.04	–
N#CC1=C2CCCCC2(O)NC1=O (stereo unspecified)	6.64	–
O=C1C(CO)C(CO)C(CO)C1CO (stereo unspecified)	17.32	–
CC1(C)N=C(N)N=C(N)N1c1ccc(OCCCOc2ccccc2)c(Cl)c1.CCS(=O)(=O)O	17.09	–
C(=N\N=c1/nnn(Cc2ccccc2)[nH]1)/c1ccccc1	12.3	–
CC(=O)Nc1c(C)cc(OCC(=O)O)cc1C	17.35	–
Cc1c(COC(=O)NC(C)C)c(COC(=O)NC(C)C)c2n1CS(=O)(=O)C2	15.85	–
COc1ccc(NC(=O)CC(C)=O)c(OC)c1	16.88	–
c1cc(-n2nnc3cnccc32)ccn1	17.77	–
O=C(NC(=S)Nc1cccc(O)c1)c1ccco1	8.77	–
O=[N+]([O-])/C=C/c1cc2ccccc2[nH]1	2.83	–
Oc1cc(-n2cccn2)c(O)cc1-n1cccn1	-0.58	–
CC(C)(C)CC(C)(C)n1nnnc1N	22.33	–

Structure (SMILES)	Inhibition [%]	Inhibition (20 µM)
O=C(/C=C/c1ccccc1Cl)c1ccc(O)cc1	-5.86	–
Cn1nc(N)c2ncc(C(Cl)(Cl)Cl)nc21	12.02	–
OCC1CCCC(n2cnc3c(S)ncnc32)O1 (stereo unspecified)	6.5	–
Cn1c(=O)c2c(nc(N3CCCCC3)n2C)n(C)c1=O	5.07	–
O=C(Cn1nnc(N2CCCCC2)n1)N/N=C/c1ccccc1O	27.98	–
CCOC(=O)/C(C#N)=C/c1cccc(C)c1	6.01	–
Clc1nc(NCCc2ccccc2)c2c[nH]nc2n1	4.27	–
OC(COc1cccc2ccccc12)CN1CCN(c2ccc(Cl)cc2)CC1 (stereo unspecified)	–	20.79% and 32.81%
O=C(O)C(Cc1c[nH]c2ccccc12)N1C(=O)c2ccccc2C1=O (stereo unspecified)	10.61	–
Clc1cc2c(nn1)Nc1ccccc1S2	10.47	–
COc1cc(NC(=O)c2cc3ccccc3cc2O)c(OC)cc1Cl	14.02	–
CCOC(=O)c1nc(SC)n(C)c1C(=O)OCC	21.78	–
Oc1ncc(I)cc1I	12.95	–
CCCCOc1ccc(NC(=O)Nc2nnc(C)s2)cc1	22.94	–
CC(C)(C)NC1=NCCNC(c2ccccc2)=C1.CS(=O)(=O)O	28.79	–
CCC(C)c1c(N)n(S(=O)(=O)c2ccc(C)cc2)oc1=O (stereo unspecified)	16.51	–
N#CC1C(=O)NC(=O)C(C#N)C12CCCC(C(F)(F)F)C2 (stereo unspecified)	-6.35	–
CC(=O)Nc1nc(C)c(CCCOc2ccc([N+](=O)[O-])cc2)c(O)n1	13.59	–
NC(=O)c1ccc(Oc2ccc(C(N)=O)cc2)cc1	11.03	–
O=S(=O)(O)c1ccc2c(c1)C(C(Cl)(Cl)Cl)OC(C(Cl)(Cl)Cl)O2 (stereo unspecified)	28.49	–
C[C@]12CC[C@@H]3c4ccc(OCC(=O)O)cc4CC[C@H]3[C@@H]1CCC2=O	20.73	–
CC1=C(O)C(=O)C(c2c(C)cc(C)c(Br)c2C)=C(O)C1=O	24.07	–
COC(=O)c1cncc(C)c1	18.38	–
Nc1nc(N)nc(C2C=CCCC2)n1 (stereo unspecified)	25.38	–
c1ccc(-c2nnc(-c3ccccn3)[nH]2)nc1	1.32	–

Structure (SMILES)	Inhibition [%]	Inhibition (20 µM)
CC(C)(C)NC(=O)c1ccc(C(=O)NC(C)(C)C)cc1	5.02	–
Cn1c(=O)c2nc(CCCc3ccc([N+](=O)[O-])cc3)[nH]c2n(C)c1=O	10.09	–
Cc1[nH]c(=O)n(C(C)C)c(=O)c1Br	17.3	–
O=C(O)C(c1ccccc1)C1(O)CCCCC1 (stereo unspecified)	16.85	–
CC(=O)OCc1cc(-c2nc3ccccc3nc2O)nn1-c1ccc(Cl)cc1	-9.31	–
COc1ccc(/C=C2/CCOC2=O)cc1	21.63	–
Nc1nc2c[nH]c(N)nc-2n1	25.21	–
Nc1ccc(/N=N/c2ccccc2Cl)c(N)n1	15.86	–
CC1=NN(c2ccccc2)C(=O)C1/N=N/c1ccc(S(N)(=O)=O)cc1 (stereo unspecified)	28.67	–
C1=CC2(C=C1)OC21CCC2(C=CC3(C2)OC3C2CCCCC2)CC1 (stereo unspecified)	0.87	–
C=CCNc1ncnc2sc(SC)nc12	0.4	–
COc1ccc(/N=N/c2ccc(N)nc2N)cc1	0.9	–
O=C(NCc1ccco1)Nc1cccc([N+](=O)[O-])c1	-4.12	–
O=C(O)c1cncc(Br)c1	3.46	–
Cn1c(=O)c2c(nc(Oc3ccccc3)n2C)n(C)c1=O	3.64	–
Oc1ccc2ccc3[nH]cnc3c2c1	1.65	–
Cc1cc(C)c(C#N)c(Sc2nc(C)c([N+](=O)[O-])c(C)c2C#N)n1	13.43	–
CC(=O)OC1COC(OC(C)=O)CO1 (stereo unspecified)	-22.89	–
CC(=O)NCC(O)c1ccc([N+](=O)[O-])cc1 (stereo unspecified)	18.6	–
C1=Cc2ccccc2Nc2ccccc21 [IMINOSTILBENE]	16.78	–
Nc1cnc(Nc2ccc(Br)cc2)nc1N.O=S(=O)(O)O	-9.21	–

Rewritten with bars between the fields: part of the list above.
Structure (SMILES) | Inhibition [%] | Inhibition (20 µM)
Oc1ncc(I)cc1I | 12.95 | –
CCCCOc1ccc(NC(=O)Nc2nnc(C)s2)cc1 | 22.94 | –
CC(C)(C)NC1=NCCNC(c2ccccc2)=C1.CS(=O)(=O)O | 28.79 | –
CCC(C)c1c(N)n(S(=O)(=O)c2ccc(C)cc2)oc1=O (stereo unspecified) | 16.51 | –
N#CC1C(=O)NC(=O)C(C#N)C12CCCC(C(F)(F)F)C2 (stereo unspecified) | -6.35 | –
CC(=O)Nc1nc(C)c(CCCOc2ccc([N+](=O)[O-])cc2)c(O)n1 | 13.59 | –
NC(=O)c1ccc(Oc2ccc(C(N)=O)cc2)cc1 | 11.03 | –
O=S(=O)(O)c1ccc2c(c1)C(C(Cl)(Cl)Cl)OC(C(Cl)(Cl)Cl)O2 (stereo unspecified) | 28.49 | –
C[C@]12CC[C@@H]3c4ccc(OCC(=O)O)cc4CC[C@H]3[C@@H]1CCC2=O | 20.73 | –
CC1=C(O)C(=O)C(c2c(C)cc(C)c(Br)c2C)=C(O)C1=O | 24.07 | –
COC(=O)c1cncc(C)c1 | 18.38 | –
Nc1nc(N)nc(C2C=CCCC2)n1 (stereo unspecified) | 25.38 | –
c1ccc(-c2nnc(-c3ccccn3)[nH]2)nc1 | 1.32 | –
CC(C)(C)NC(=O)c1ccc(C(=O)NC(C)(C)C)cc1 | 5.02 | –
Cn1c(=O)c2nc(CCCc3ccc([N+](=O)[O-])cc3)[nH]c2n(C)c1=O | 10.09 | –
Cc1[nH]c(=O)n(C(C)C)c(=O)c1Br | 17.3 | –
O=C(O)C(c1ccccc1)C1(O)CCCCC1 (stereo unspecified) | 16.85 | –
CC(=O)OCc1cc(-c2nc3ccccc3nc2O)nn1-c1ccc(Cl)cc1 | -9.31 | –
COc1ccc(/C=C2/CCOC2=O)cc1 | 21.63 | –
Nc1nc2c[nH]c(N)nc-2n1 | 25.21 | –
Nc1ccc(/N=N/c2ccccc2Cl)c(N)n1 | 15.86 | –
CC1=NN(c2ccccc2)C(=O)C1/N=N/c1ccc(S(N)(=O)=O)cc1 (stereo unspecified) | 28.67 | –
C1=CC2(C=C1)OC21CCC2(C=CC3(C2)OC3C2CCCCC2)CC1 (stereo unspecified) | 0.87 | –
C=CCNc1ncnc2sc(SC)nc12 | 0.4 | –
COc1ccc(/N=N/c2ccc(N)nc2N)cc1 | 0.9 | –
O=C(NCc1ccco1)Nc1cccc([N+](=O)[O-])c1 | -4.12 | –
O=C(O)c1cncc(Br)c1 | 3.46 | –
Cn1c(=O)c2c(nc(Oc3ccccc3)n2C)n(C)c1=O | 3.64 | –
Oc1ccc2ccc3[nH]cnc3c2c1 | 1.65 | –
Cc1cc(C)c(C#N)c(Sc2nc(C)c([N+](=O)[O-])c(C)c2C#N)n1 | 13.43 | –
CC(=O)OC1COC(OC(C)=O)CO1 (stereo unspecified) | -22.89 | –
CC(=O)NCC(O)c1ccc([N+](=O)[O-])cc1 (stereo unspecified) | 18.6 | –
C1=Cc2ccccc2Nc2ccccc21 [IMINOSTILBENE] | 16.78 | –
